The values that follow come from the supplement of paper PMC10849652.

By UniProt entry, the sequences of proteins in these tests, tags left out. Where a name states a change or a piece, a line headed by the entry shows the natural chain unless it says otherwise.
UniProt O43852: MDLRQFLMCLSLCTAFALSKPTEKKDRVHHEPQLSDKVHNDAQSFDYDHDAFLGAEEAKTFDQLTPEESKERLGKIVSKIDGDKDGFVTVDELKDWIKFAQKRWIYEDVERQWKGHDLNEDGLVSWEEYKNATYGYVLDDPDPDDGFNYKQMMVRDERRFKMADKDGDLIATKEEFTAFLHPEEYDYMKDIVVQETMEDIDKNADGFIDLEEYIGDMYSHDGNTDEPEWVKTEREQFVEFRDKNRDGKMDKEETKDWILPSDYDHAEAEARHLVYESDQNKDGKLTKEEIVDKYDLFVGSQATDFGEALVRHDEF
UniProt Q96EU7: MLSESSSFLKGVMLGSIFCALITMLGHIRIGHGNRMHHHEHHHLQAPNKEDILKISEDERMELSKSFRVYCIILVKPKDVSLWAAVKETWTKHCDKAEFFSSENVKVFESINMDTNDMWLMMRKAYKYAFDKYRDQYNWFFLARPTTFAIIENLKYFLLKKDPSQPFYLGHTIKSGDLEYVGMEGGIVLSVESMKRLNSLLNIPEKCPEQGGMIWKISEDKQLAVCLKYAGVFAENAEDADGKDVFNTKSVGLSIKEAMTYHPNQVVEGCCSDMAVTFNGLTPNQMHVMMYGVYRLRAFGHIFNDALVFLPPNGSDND
UniProt Q8IXQ3: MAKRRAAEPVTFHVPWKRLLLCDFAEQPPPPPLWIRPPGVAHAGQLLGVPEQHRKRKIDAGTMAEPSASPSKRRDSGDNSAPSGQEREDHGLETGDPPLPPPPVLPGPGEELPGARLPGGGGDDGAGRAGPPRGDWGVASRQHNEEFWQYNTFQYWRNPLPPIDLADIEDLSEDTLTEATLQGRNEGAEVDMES
UniProt Q14444, whole entry, looked up: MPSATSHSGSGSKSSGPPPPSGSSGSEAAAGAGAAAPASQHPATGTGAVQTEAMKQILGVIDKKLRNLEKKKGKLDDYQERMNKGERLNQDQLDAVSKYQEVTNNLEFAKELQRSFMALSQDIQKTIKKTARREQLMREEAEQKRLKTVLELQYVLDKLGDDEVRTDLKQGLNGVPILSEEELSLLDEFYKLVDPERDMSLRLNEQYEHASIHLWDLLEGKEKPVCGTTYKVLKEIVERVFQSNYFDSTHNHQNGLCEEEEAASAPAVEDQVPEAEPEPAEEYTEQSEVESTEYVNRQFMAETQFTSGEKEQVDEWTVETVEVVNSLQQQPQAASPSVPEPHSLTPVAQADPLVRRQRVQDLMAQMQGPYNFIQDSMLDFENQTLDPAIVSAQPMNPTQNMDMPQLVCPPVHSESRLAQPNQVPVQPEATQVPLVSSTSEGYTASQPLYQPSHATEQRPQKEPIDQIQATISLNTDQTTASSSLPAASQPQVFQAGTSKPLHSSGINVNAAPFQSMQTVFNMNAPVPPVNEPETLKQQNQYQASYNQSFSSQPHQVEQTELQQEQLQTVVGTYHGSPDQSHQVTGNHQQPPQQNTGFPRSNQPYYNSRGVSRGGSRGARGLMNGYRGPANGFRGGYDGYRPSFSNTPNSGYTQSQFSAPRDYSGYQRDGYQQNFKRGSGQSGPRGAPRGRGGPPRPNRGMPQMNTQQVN
UniProt Q8TCD1: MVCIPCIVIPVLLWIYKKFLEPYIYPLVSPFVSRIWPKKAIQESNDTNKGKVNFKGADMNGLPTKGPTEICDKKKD
UniProt Q9NS00: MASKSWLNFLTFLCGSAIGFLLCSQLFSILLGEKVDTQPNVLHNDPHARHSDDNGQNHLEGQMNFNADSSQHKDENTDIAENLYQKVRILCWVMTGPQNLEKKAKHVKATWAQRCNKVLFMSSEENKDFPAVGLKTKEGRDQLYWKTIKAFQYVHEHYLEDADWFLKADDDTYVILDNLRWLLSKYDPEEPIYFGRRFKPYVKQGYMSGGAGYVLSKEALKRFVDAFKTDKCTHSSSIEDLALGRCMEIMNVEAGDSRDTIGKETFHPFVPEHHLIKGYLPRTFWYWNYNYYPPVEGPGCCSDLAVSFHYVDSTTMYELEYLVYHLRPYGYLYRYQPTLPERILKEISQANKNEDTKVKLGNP
UniProt P27824: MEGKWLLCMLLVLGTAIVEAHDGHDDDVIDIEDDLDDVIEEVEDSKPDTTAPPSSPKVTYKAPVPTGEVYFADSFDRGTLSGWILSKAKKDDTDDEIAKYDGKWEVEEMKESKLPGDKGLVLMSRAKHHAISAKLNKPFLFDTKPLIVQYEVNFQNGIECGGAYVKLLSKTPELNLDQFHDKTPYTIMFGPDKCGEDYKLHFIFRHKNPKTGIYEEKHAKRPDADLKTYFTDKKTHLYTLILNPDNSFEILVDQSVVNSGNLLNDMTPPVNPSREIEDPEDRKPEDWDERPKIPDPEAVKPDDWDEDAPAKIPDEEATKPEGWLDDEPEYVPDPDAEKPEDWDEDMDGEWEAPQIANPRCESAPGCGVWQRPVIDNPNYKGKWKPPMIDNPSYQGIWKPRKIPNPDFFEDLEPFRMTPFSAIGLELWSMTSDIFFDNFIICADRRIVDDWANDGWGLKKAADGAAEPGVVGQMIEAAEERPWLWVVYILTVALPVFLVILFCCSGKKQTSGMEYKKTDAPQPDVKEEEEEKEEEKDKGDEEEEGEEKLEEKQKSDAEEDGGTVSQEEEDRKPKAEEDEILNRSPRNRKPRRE
UniProt O60566, whole entry, looked up: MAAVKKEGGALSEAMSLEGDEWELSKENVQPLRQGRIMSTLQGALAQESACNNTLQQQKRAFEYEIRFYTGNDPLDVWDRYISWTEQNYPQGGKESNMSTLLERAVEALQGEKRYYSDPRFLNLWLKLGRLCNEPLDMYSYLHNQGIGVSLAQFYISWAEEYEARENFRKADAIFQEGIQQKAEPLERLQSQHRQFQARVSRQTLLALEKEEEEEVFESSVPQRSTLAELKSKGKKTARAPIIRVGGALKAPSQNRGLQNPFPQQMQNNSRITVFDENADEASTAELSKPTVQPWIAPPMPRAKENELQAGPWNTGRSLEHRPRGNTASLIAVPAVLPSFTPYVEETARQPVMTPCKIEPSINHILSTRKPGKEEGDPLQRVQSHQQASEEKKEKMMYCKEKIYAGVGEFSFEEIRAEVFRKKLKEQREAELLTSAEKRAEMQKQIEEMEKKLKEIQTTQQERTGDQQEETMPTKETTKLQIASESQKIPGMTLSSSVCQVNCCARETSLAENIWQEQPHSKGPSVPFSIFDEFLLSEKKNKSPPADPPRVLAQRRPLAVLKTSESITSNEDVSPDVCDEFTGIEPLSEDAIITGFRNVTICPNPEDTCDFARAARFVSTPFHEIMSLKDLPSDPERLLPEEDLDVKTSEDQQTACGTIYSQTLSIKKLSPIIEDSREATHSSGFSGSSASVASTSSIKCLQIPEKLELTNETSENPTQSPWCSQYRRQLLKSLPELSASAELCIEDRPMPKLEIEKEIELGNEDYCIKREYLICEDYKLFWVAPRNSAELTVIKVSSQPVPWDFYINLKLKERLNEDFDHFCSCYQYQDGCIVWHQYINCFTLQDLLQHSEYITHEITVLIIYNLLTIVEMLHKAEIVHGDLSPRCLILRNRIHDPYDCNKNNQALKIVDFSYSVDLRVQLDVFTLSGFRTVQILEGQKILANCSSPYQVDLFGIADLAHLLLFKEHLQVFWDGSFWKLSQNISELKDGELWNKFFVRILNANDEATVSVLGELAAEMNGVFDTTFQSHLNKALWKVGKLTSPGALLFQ
UniProt Q9NZ63: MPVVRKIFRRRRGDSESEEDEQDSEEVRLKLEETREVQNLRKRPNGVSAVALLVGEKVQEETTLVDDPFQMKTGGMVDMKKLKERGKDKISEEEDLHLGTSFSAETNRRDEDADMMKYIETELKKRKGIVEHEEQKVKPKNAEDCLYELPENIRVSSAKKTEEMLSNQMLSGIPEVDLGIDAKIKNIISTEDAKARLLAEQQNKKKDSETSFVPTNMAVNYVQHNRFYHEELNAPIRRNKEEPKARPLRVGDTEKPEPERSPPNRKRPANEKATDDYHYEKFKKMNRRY
UniProt P27708: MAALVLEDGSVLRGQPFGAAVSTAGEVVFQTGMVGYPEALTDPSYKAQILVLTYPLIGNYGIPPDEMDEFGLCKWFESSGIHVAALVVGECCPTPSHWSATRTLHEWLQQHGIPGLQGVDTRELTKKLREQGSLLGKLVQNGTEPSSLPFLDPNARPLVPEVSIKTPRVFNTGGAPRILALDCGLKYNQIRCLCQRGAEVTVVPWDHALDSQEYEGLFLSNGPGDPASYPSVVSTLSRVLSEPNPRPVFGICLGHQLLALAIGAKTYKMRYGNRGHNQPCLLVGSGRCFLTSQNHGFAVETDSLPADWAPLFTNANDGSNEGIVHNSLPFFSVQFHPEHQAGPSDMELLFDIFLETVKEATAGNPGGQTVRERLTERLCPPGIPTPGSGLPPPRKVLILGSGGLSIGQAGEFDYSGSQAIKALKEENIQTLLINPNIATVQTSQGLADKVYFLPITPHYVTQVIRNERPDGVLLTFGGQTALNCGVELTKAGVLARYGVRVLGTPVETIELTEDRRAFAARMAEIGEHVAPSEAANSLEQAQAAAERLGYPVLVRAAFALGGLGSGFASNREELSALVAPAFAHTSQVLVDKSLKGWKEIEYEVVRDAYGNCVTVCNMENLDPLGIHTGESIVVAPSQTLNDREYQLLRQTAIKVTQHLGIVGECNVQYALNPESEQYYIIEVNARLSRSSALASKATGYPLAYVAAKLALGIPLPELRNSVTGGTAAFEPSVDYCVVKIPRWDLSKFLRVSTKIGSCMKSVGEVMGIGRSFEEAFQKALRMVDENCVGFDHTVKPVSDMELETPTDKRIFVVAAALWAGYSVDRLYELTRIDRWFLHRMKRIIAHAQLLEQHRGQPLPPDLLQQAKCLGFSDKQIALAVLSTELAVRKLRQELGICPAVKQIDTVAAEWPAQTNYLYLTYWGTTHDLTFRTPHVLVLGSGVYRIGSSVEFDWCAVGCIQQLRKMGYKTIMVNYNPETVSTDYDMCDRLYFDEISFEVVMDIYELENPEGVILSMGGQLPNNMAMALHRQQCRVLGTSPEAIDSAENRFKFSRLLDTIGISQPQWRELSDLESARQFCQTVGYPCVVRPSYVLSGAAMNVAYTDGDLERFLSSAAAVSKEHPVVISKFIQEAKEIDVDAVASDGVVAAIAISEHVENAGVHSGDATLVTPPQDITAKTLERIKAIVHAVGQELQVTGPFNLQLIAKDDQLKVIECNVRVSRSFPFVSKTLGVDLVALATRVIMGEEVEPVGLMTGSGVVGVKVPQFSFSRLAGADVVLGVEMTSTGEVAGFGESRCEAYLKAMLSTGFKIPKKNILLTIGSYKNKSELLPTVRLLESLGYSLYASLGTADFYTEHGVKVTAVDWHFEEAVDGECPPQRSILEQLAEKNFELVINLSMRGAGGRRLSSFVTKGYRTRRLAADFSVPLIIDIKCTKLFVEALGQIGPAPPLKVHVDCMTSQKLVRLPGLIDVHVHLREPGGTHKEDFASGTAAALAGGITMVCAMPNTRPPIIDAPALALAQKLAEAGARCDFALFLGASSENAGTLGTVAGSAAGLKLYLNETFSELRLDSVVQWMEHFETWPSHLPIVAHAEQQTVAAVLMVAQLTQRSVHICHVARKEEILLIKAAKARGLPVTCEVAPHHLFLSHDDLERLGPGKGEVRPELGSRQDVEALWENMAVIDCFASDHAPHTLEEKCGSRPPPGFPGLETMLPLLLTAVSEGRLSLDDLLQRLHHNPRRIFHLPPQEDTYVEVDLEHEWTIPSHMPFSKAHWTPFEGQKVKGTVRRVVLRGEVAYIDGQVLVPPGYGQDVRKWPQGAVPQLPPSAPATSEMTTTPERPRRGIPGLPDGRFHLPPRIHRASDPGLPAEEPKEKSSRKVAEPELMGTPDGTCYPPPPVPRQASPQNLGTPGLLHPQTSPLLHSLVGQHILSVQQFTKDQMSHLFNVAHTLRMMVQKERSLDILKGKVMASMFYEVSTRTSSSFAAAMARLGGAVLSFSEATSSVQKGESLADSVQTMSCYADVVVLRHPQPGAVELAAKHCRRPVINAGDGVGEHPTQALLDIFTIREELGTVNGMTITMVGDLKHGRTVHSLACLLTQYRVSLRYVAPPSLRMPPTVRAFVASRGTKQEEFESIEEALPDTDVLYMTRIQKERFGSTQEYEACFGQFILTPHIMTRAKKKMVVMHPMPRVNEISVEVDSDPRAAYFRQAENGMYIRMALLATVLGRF
UniProt Q96GQ5: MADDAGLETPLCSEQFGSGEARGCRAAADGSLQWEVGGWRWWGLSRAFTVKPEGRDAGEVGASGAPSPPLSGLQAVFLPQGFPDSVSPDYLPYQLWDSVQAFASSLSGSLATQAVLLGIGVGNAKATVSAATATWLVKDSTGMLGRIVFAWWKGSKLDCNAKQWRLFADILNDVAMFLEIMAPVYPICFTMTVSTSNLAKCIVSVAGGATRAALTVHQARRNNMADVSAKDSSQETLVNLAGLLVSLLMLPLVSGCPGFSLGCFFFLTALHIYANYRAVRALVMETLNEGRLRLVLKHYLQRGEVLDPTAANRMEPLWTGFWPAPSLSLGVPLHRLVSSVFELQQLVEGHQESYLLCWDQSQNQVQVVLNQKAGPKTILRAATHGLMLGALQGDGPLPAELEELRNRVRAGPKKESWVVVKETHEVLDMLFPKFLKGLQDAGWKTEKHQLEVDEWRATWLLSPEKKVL

This is one part of the list.

Compound in the assay: O=C(CCCCCCNC(=O)c1cnc(N(c2ccccc2)c2ccccc2Cl)nc1)NO [citarinostat]
The assay is described as follows: log2 fold change, soluble protein after heating vs DMSO (PISA); higher = thermal stabilisation; K562 cells, 10 uM, 30 min; active = over 0.2 and 3.5 SD of the protein, either way, in both replicates (recomputed). Summed up:
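K562 cells (2×10^6 cells/mL) were treated with 10 μM compound for 30 min, and aliquots were heated for 3 min over 48°C-58°C. Pooled aliquots were extracted in PBS with 0.5% NP-40 at 4°C, and the supernatant after 21,000xg for 90 min was measured by TMTpro 16plex LC-MS/MS with channel sums equalised. Reported thermal stability, relative to control samples and from duplicates, is a log2 fold change.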
C8orf76 (UniProt Q96K31): the log2 fold change is inactive: -0.105.

Consider C6orf89 isoform 2 (UniProt Q6UWU4), for which the log2 fold change was inactive: 0.024.

For CALCOCO1 (UniProt Q9P1Z2), the log2 fold change was inactive: -0.121.

Consider CALU isoform 4 (UniProt O43852), for which the log2 fold change is inactive: 0.034.

For the target C1GALT1C1 (UniProt Q96EU7), the log2 fold change is inactive: 0.023.

For C9orf40 (UniProt Q8IXQ3), the log2 fold change is inactive: 0.023.

With CAPRIN1 (UniProt Q14444), the log2 fold change is inactive: -0.073.

With C11orf68 (UniProt Q9H3H3), the log2 fold change was inactive: 0.029.

Turning to CACTIN isoform 2 (UniProt Q8WUQ7), the log2 fold change is inactive: 0.

For the target C18orf32 (UniProt Q8TCD1), the log2 fold change is inactive: -0.003.

As for C1GALT1 (UniProt Q9NS00), the log2 fold change is inactive: -0.028.

As to CARD19 isoform 2 (UniProt Q96LW7), the log2 fold change is inactive: 0.03.

For the target C17orf80 (UniProt Q9BSJ5), the log2 fold change was inactive: 0.013.

For CANX isoform 2 (UniProt P27824), the log2 fold change was inactive: 0.012.

C4BPA (UniProt P04003): the log2 fold change was inactive: 0.068.

With C12orf29 (UniProt Q8N999), the log2 fold change was inactive: 0.055.

For CAB39 (UniProt Q9Y376), the log2 fold change was inactive: 0.03.

Consider BUB1B isoform 3 (UniProt O60566), for which the log2 fold change was inactive: 0.02.

In the case of BTN2A1 (UniProt Q7KYR7), the log2 fold change was inactive: 0.027.

As for C12orf73 (UniProt Q69YU5), the log2 fold change was inactive: 0.017.

As to C9orf78 (UniProt Q9NZ63), the log2 fold change was inactive: -0.015.

Turning to C1orf52 (UniProt Q8N6N3), the log2 fold change is inactive: 0.018.

For CAD (UniProt P27708), the log2 fold change is inactive: 0.014.

Consider CALB1 (UniProt P05937), for which the log2 fold change is inactive: 0.062.

Regarding C1D (UniProt Q13901), the log2 fold change was inactive: 0.067.

In the case of C16orf58 (UniProt Q96GQ5), the log2 fold change is inactive: 0.034.

Turning to C19orf53 (UniProt Q9UNZ5), the log2 fold change is inactive: -0.105.

For the target CAPZB isoform 2 (UniProt P47756), the log2 fold change is inactive: -0.018.

On to C7 (UniProt P10643), for which the log2 fold change was inactive: 0.066.

In the case of C18orf25 isoform 2 (UniProt Q96B23), the log2 fold change is inactive: 0.039.

In the case of CARD8 isoform 5 (UniProt Q9Y2G2), the log2 fold change was inactive: -0.09.
